PubChem BioAssay AID1053208 – Peter MacCallum Cancer Centre, 2014

Assay: 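Find knock-downs that sensitise mouse osteosarcoma cells to doxorubicin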 (primary screen)
Cell system: mouse osteosarcoma cells, early-passage culture from an engineered mouse model of fibroblastic bone tumour
Reagents: siRNA pool against mouse genes, 40 nM
Time to read-out: about 120 h (48 h before drug, then 72 h with drug)
Conditions: doxorubicin 100 nM for 72 h, roughly 30-40% inhibitory dose
Detection: 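Luminescent ATP signal taken as viability with or without 100 nM doxorubicin for 72 h; mean of two wells set against non-targeting siRNA and turned into robust z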
Scale: viability z-score with doxorubicin and doxorubicin viability vs non-targeting: higher = more viable cells under doxorubicin; viability z-score without drug: higher = more viable cells with knock-down alone; z-score of drug to no-drug ratio: higher = less drug sensitisation by knock-down
Active means: 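Called active if knock-down leaves viability unchanged without drug (z within -2 to 2) but lowers it with doxorubicin (z at or under -2)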
Here is an unselected part of about 17,000 deposited reagents. In the full data, 788 (4.7%) got an active call. 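Calls rest on z-score classes alone; an extra cut-off of viability at most 70% of control was not applied to them.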 Entries without a mark were called inactive. Reagents against one gene are numbered here. Reagent sequences are not shown.

The opening 4 entries, to show the layout:
target,reagent no.,combined z-score class,viability z-score with doxorubicin,viability z-score without drug,z-score of drug to no-drug ratio,doxorubicin viability vs non-targeting
"Coro2b (coronin, actin binding protein, 2B)",1,no change with or without drug,0.45,0.51,0.22,0.98
Zfp74 (zinc finger protein 74),1,high cell count without drug only,0.56,2.19,-0.67,0.99
Msmb (beta-microseminoprotein),1,no change with or without drug,0.34,0.17,0.34,0.97
Olfml3 (olfactomedin-like 3),1,no change with or without drug,0.22,-1.18,1.24,0.96

The list itself, repeating the preview:
target,reagent no.,combined z-score class,viability z-score with doxorubicin,viability z-score without drug,z-score of drug to no-drug ratio,doxorubicin viability vs non-targeting
"Coro2b (coronin, actin binding protein, 2B)",1,no change with or without drug,0.45,0.51,0.22,0.98
Zfp74 (zinc finger protein 74),1,high cell count without drug only,0.56,2.19,-0.67,0.99
Msmb (beta-microseminoprotein),1,no change with or without drug,0.34,0.17,0.34,0.97
Olfml3 (olfactomedin-like 3),1,no change with or without drug,0.22,-1.18,1.24,0.96
Ccdc159 (coiled-coil domain containing 159),1,no change with or without drug,0.56,1.01,0,0.99
Adam8 (a disintegrin and metallopeptidase domain 8),1,no change with or without drug,-0.11,0.67,-0.45,0.93
Mpdu1 (mannose-P-dolichol utilization defect 1),1,low cell count with and without drug,-2.36,-2.36,-0.9,0.73
"Rab32 (RAB32, member RAS oncogene family)",1,no change with or without drug,1.12,0.84,0.67,1.04
"Gm20555 (predicted gene, 20555)",1,high cell count without drug only,1.01,2.02,-0.22,1.03
Dusp18 (dual specificity phosphatase 18),1,no change with or without drug,1.12,0.51,0.9,1.04
Ccdc73 (coiled-coil domain containing 73),1,high cell count without drug only,1.12,4.05,-1.24,1.04
Map3k8 (mitogen-activated protein kinase kinase kinase 8),1,no change with or without drug,0.22,-0.67,0.79,0.96
Slc38a7,1,no change with or without drug,0,-0.84,0.67,0.94
"Zzz3 (zinc finger, ZZ domain containing 3)",1,high cell count with doxorubicin only,2.02,0.51,1.8,1.12
Taf5l (TATA-box binding protein associated factor 5 like),1,no change with or without drug,-0.22,-0.17,0,0.92
"Alox12b (arachidonate 12-lipoxygenase, 12R type)",1,high cell count with doxorubicin only,2.59,1.18,1.91,1.17
Or4f15 (olfactory receptor family 4 subfamily F member 15),1,no change with or without drug,-1.01,-1.69,0.22,0.85
"Pcdhgc3 (protocadherin gamma subfamily C, 3)",1,no change with or without drug,-1.57,0,-1.57,0.8
Sfmbt1 (Scm-like with four mbt domains 1),1,no change with or without drug,-0.56,-1.01,0.22,0.89
Sfmbt1 (Scm-like with four mbt domains 1),2,high cell count without drug only,0.45,3.71,-1.57,0.98
Cyth3 (cytohesin 3),1,no change with or without drug,0.34,-0.84,1.12,0.97
Cfd (complement factor D),1,no change with or without drug,0.56,0.84,0.11,0.99
Zfp422 (zinc finger protein 422),1,no change with or without drug,1.35,1.52,0.45,1.06
Mark4 (MAP/microtubule affinity regulating kinase 4),1,no change with or without drug,-1.57,0.67,-1.91,0.8
"Ctns (cystinosis, nephropathic)",1,no change with or without drug,0.56,-0.51,1.12,0.99
Herc2 (HECT and RLD domain containing E3 ubiquitin protein ligase 2),1,no change with or without drug,-0.22,-0.34,0.11,0.92
Fgf10 (fibroblast growth factor 10),1,no change with or without drug,-1.46,0.34,-1.57,0.81
"Ptf1a (pancreas specific transcription factor, 1a)",1,no change with or without drug,-0.34,1.69,-1.24,0.91
Slc9a1,1,no change with or without drug,-0.67,-0.17,-0.45,0.88
Apol11b (apolipoprotein L 11b),1,low cell count with doxorubicin only (active),-2.92,-1.01,-2.47,0.68
Cplx4 (complexin 4),1,no change with or without drug,0.22,1.35,-0.56,0.96
"Toe1 (target of EGR1, member 1 (nuclear))",1,low cell count with and without drug,-2.02,-3.2,0.22,0.76
Pfn3 (profilin 3),1,low cell count with and without drug,-2.7,-2.19,-1.46,0.7
Or8b4 (olfactory receptor family 8 subfamily B member 4),1,no change with or without drug,0.22,0.84,-0.22,0.96
Or11h7 (olfactory receptor family 11 subfamily H member 7),1,no change with or without drug,-1.12,0.84,-1.57,0.84
Cbln1 (cerebellin 1 precursor protein),1,no change with or without drug,-0.56,0,-0.45,0.89
Ces1f (carboxylesterase 1F),1,no change with or without drug,-0.67,-0.17,-0.45,0.88
"Sele (selectin, endothelial cell)",1,no change with or without drug,-0.11,0.84,-0.56,0.93
Rpl9 (ribosomal protein L9),1,low cell count with and without drug,-6.74,-7.25,-3.71,0.34
Apoa5 (apolipoprotein A-V),1,low cell count without drug only,-0.45,-2.19,1.35,0.9
Nav3 (neuron navigator 3),1,no change with or without drug,-1.12,0.51,-1.35,0.84
Shmt2 (serine hydroxymethyltransferase 2 (mitochondrial)),1,no change with or without drug,-0.34,0.17,-0.34,0.91
Pnrc2 (proline-rich nuclear receptor coactivator 2),1,high cell count with doxorubicin only,2.02,0.17,2.14,1.12
Zw10 (zw10 kinetochore protein),1,no change with or without drug,0,-0.67,0.56,0.94
Pkd2l1 (polycystic kidney disease 2-like 1),1,no change with or without drug,-0.67,-0.67,-0.11,0.88
Tmem177 (transmembrane protein 177),1,no change with or without drug,1.35,1.85,0.22,1.06
Pdxdc1 (pyridoxal-dependent decarboxylase domain containing 1),1,no change with or without drug,1.46,0.34,1.35,1.07
Slc17a3,1,no change with or without drug,1.12,0,1.24,1.04
Rsl24d1 (ribosomal L24 domain containing 1),1,low cell count without drug only,-0.67,-3.2,2.02,0.88
Mpzl3 (myelin protein zero-like 3),1,no change with or without drug,-0.45,0.84,-0.9,0.9
